These are yes or no findings as the source states them, for the method shown. Binding seen in cells or lysates may run through a third protein. Here binding means that the protein was enriched with, or labelled near, the bait; the list need not be complete.

The chains behind the UniProt entries cited, without tags or fusion partners. Residues count along the entry.
UniProt Q9Y6N7, residues 26-1651: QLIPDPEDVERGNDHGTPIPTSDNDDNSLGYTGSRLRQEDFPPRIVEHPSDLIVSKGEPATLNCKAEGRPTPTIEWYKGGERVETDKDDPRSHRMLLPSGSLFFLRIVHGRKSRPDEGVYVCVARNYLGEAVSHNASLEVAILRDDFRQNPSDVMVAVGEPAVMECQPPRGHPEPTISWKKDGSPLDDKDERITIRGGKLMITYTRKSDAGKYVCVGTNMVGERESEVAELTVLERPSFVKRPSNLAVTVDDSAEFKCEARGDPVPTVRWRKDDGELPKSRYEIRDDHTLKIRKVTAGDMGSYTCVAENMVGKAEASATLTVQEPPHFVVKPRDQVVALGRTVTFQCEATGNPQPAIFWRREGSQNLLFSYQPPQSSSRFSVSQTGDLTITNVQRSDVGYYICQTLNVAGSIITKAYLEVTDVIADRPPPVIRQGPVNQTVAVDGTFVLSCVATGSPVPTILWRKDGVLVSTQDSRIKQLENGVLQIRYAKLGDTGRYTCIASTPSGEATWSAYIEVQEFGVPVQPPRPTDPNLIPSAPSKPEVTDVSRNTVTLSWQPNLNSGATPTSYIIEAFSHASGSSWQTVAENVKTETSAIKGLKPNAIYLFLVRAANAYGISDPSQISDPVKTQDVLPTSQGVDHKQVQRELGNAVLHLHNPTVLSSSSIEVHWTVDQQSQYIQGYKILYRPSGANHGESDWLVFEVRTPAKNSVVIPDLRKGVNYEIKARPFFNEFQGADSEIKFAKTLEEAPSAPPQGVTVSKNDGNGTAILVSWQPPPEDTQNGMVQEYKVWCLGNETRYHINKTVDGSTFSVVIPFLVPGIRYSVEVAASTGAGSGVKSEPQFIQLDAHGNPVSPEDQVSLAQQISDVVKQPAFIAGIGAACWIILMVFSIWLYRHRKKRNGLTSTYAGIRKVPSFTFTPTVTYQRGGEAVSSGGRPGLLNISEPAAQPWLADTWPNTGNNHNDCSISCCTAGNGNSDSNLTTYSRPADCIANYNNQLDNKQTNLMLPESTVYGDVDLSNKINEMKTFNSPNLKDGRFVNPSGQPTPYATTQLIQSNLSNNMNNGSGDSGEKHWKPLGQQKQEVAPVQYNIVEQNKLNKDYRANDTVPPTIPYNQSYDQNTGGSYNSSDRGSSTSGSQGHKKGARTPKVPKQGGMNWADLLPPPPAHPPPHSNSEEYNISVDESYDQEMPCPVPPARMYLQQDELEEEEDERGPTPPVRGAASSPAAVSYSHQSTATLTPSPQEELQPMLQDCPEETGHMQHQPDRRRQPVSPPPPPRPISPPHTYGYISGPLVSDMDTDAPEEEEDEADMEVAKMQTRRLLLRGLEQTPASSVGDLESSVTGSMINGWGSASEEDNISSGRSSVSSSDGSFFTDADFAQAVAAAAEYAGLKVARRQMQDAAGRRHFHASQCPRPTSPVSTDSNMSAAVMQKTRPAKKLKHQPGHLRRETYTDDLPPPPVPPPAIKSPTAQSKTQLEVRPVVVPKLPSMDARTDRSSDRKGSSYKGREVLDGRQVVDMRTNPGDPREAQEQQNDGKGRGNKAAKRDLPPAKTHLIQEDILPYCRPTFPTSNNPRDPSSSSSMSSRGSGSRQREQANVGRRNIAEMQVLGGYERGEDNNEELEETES

This experiment deals with roundabout guidance receptor 1 (ROBO1) (human (endogenous in KYSE450 and TE1)) (UniProt Q9Y6N7). Nature of the experiment: affinity purification with mass spectrometry; endogenous ROBO1 immunoprecipitated with anti-ROBO1 antibodies from ESCC cells, LC-MS of the sediment.

B1: G3BP2 (Ras GTPase-activating protein-binding protein 2) (protein, UniProt Q9UN86 1-482)
chain: MVMEKPSPLLVGREFVRQYYTLLNKAPEYLHRFYGRNSSYVHGGVDASGKPQEAVYGQNDIHHKVLSLNFSECHTKIRHVDAHATLSDGVVVQVMGLLSNSGQPERKFMQTFVLAPEGSVPNKFYVHNDMFRYEDEVFGDSEPELDEESEDEVEEEQEERQPSPEPVQENANSGYYEAHPVTNGIEEPLEESSHEPEPEPESETKTEELKPQVEEKNLEELEEKSTTPPPAEPVSLPQEPPKAFSWASVTSKNLPPSGTVSSSGIPPHVKAPVSQPRVEAKPEVQSQPPRVREQRPRERPGFPPRGPRPGRGDMEQNDSDNRRIIRYPDSHQLFVGNLPHDIDENELKEFFMSFGNVVELRINTKGVGGKLPNFGFVVFDDSEPVQRILIAKPIMFRGEVRLNVEEKKTRAARERETRGGGDDRRDIRRNDRGPGGPRGIVGGGMMRDRDGRGPPPRGGMAQKLGSGRGTGQMEGRFTGQRR
As to B1, the binding result is listed as “binds”.

The values above are taken from PMC11972380.
